# Measurements published in patent publication US8039488B2, “Methods and compositions for inhibition of angiogenesis” (Children's Medical Center Corporation, priority 1996, dated 2011).
# The name of at least one read-out is uncertain.
# Test system: bFGF induced angiogenesis
# Test: Mouse corneal micropocket assay, bFGF pellets
# Format: in vivo, mice
# Conditions: dose 10-160 mg/kg once daily; 5 days after implantation
# Description: Six to eight week old C57B 16 male mice were obtained from Jackson Laboratories, MA. The mice were anesthetized, and 0.4×0.4 mm pockets were made in the stroma of the mouse cornea adjacent to the limbus. Pellets containing 80 ng of either bFGF or VEGF were […]. The pellets containing bFGF were implanted 1.0-1.2 mm from the limbal vessels, while the pellets containing VEGF were implanted 0.5-0.7 mm from the limbal vessels. Erythromycin was then topically applied.
# The vascular response to the pellets was measured by maximal vessel length and number of clock hours of neovascularization 5 days after implantation of the bFGF pellets and 6 days after implantation of the VEGF pellets. The area of corneal neovascularization was calculated using the following formula which best approximated the area of neovascularization: Area (mm^2)=[π×clock hours×length (mm)×0.2 (mm)]. […]
# The mice were then treated with thalidomide, indomethacin, sulindac, or combinations of thalidomide with either indomethacin or sulindac. The vascular response to the pellets was measured by maximal vessel length and number of clock hours of neovascularization 5 days after implantation of the bFGF pellets and 6 days after implantation of the VEGF pellets. […]
smiles,measurement,value
"CC(=O)Oc1ccccc1C(=O)O [Aspirin, aspirin]",% Inhibition of bFGF induced angiogenesis,0-11%
